Experimental data: PubChem BioAssay AID1671190 (National Center for Advancing Translational Sciences (NCATS), 2021)
Several values for one entry are separate records, joined by “and”; a condition that tells them apart may be missing. Identical values can stand only once. Among all 580,000 compounds or so, about 6,100 (1.1%) were called active. This list was built around the results that the source calls inconclusive (neither active nor inactive); the mix of calls is not that of the screen. Calls come from the whole dose curve; as a rule, active = well fitted inhibition curve with a large enough effect; inconclusive = small, poorly fitted or top-dose-only effect, or another doubt; inactive = no such curve, though single readings can be large or run the other way. Where the call is inconclusive, the potency comes from a doubtful curve fit.

Protein sequences, listed by entry. Tags and fused reporters are not part of them.
UniProt P18054, whole entry, looked up: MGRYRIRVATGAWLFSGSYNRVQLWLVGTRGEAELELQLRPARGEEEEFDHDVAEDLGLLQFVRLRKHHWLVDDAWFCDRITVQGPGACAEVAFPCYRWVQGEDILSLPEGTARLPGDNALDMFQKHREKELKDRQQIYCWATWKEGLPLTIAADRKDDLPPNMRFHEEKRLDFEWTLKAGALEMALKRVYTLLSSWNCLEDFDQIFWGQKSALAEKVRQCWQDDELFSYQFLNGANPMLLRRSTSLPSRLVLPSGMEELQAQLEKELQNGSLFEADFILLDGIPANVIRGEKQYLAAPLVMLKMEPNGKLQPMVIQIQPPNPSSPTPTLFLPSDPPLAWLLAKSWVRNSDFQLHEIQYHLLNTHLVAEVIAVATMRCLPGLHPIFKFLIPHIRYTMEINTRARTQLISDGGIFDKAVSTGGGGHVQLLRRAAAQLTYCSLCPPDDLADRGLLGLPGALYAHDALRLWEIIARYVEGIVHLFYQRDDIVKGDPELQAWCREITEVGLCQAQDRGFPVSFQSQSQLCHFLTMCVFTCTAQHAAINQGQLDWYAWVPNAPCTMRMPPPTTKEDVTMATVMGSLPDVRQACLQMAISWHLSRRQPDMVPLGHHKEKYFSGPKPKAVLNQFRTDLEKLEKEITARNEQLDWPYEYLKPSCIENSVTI

target: Polyunsaturated fatty acid lipoxygenase ALOX12 (Homo sapiens) (UniProt P18054); test: Primary qHTS assay for inhibitors of human arachidonate 12S-lipoxygenase (ALOX12): Round 2; conditions: purified 12hLO, xylenol orange hydroperoxide absorbance; activity change, negative = inhibition: at 108 µM (top of the series) unless noted
Outline: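 Hydroperoxide product was detected by ferrous iron/xylenol orange as the 573 to 405 nm absorbance ratio. Arachidonic acid at 40 uM (final) was turned over for 30 min at room temperature by 150 nM human 12hLO, pH 7.0 Hepes buffer, after 15 min compound preincubation.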
% is set by controls: 0 for no effect and ±100 for the full control effect; potency is the fitted concentration of half-maximal effect.

SMILES | Potency | activity change, negative = inhibition
Cc1cc(C)n2nc(SC(C)C(=O)NCc3ccco3)nc2n1 (stereo unspecified) | inconclusive: 1.78 µM [inhibitor, full curve, poor fit] | 
CCc1ccc(C(O)c2ncc(-c3ccccc3Cl)[nH]2)cc1 (stereo unspecified) | inconclusive: 56.2 µM [inhibitor, partial curve, poor fit] | 
Cc1cc(Nc2cc(C)on2)n2ncnc2n1 | active: 1.26 µM | 
O=C1NC2(CCN([S+](=O)([O-])c3cccc(C(F)(F)F)c3)C2)N=C1c1ccncc1 (stereo unspecified) | inactive | 
O=C(c1ccccn1)N1CCc2nc(C3CC3)nc(-c3ccc(Cl)cc3)c2C1 | inconclusive: 0.708 µM [inhibitor, full curve] | 
O=C(/C=C/c1ccccc1)COC(=O)c1ccccc1 | inactive | 
Cc1ccc2[nH]c(=O)c(C(c3nnnn3C3CCCC3)N(Cc3cccnc3)Cc3ccco3)cc2c1 (stereo unspecified) | inconclusive: 14.1 µM [inhibitor, full curve] | 
CCCCNC(=O)C[C@@H]1C[C@@]2(C(=O)OC)CC(C)(C)CC=C2N(CCc2ccc(OC)c(OC)c2)C1=O | inactive | 
COc1ccc(-c2cc(=O)c3c(O)cc(OC4OC(COC5OC(C)C(O)C(O)C5O)C(O)C(O)C4O)cc3o2)cc1O (stereo unspecified) | inactive | 
CN1CCc2ccccc2Cc2[nH]c3ccccc3c2CC1 | inconclusive: 15.8 µM [inhibitor, single point] and inconclusive: 63.1 µM [inhibitor, partial curve, poor fit] | 
Cn1nc(CC(=O)Nc2ccc(Cl)cc2)c2ccccc2c1=O | inactive | 
Cc1cccn2c(/C=N/OCc3cccc(F)c3)c(-c3ccc(Cl)cc3)nc12 | inactive | 
Clc1cccc(CN2CC[C@H](c3nc4ccccc4o3)C2)c1 | inactive | 
Cc1csc2c(SCC(=O)NNS(=O)(=O)c3cccc(C(F)(F)F)c3)ncnc12 | inconclusive: 11.2 µM [inhibitor, full curve, poor fit] | 
O=C(NCCO)/C(=C/c1ccco1)NC(=O)c1ccco1 | inconclusive: 39.8 µM [inhibitor, partial curve, poor fit] | 
O=C(/C=C/c1ccc2c(c1)OCO2)NCCSCc1cccc(Cl)c1 | inactive | 
O=C(Nn1cnnc1)c1ccc([N+](=O)[O-])cc1 | inconclusive: 89.1 µM [inhibitor, single point] | 
Cc1cccc(OCC(=O)NC(=S)Nc2ccccc2N2CCOCC2)c1 | inconclusive: 63.1 µM [inhibitor, partial curve, poor fit] | 
O=C(c1ccccc1)N1CCC(n2cc(-c3nc(-c4ccccc4)no3)nn2)CC1 | inconclusive: 31.6 µM [inhibitor, full curve] | 
O=C(Nc1ccc(Cl)cc1)N[C@H]1CC[C@@]23CCCN2C(=O)CCC[C@H]3C1Cc1ccccc1 (stereo partly specified) | inconclusive: 50.1 µM [inhibitor, single point] | 
CC1CC(=S)Nc2ccccc2N1Cc1ccccc1 (stereo unspecified) | active: 44.7 µM | 
CN(C)CC(=O)Nc1sc2c(c1C#N)CCCCC2 | inactive | 

SMILES | Potency | activity change, negative = inhibition
CCc1ccccc1NC(=O)CCC(=O)c1ccc2c(c1)CCC2 | inconclusive: 39.8 µM [inhibitor, partial curve, poor fit] | 
CC(C)[C@@H]1Cc2[nH][nH]c(=O)c2[C@H](c2ccc(F)cc2)O1 | inactive | 
COc1ccc(C(=O)NC(C)c2nc3ccccc3n2C)cc1OC (stereo unspecified) |  | inconclusive: -37% [inhibitor]
O=C(Nc1cccc(S(=O)(=O)N2CCCCC2)c1)C1COc2ccccc2O1 (stereo unspecified) | inconclusive: 112 µM [inhibitor, single point] | 
C(=N\Nc1nc(-c2ccccc2)cs1)/c1ccco1 | inconclusive: 50.1 µM [inhibitor, partial curve, poor fit] | 
O=c1[nH]c(O)c(/C=C2\C=Nc3ccccc32)[nH]1 | inconclusive: 14.1 µM [inhibitor, full curve] | 
O=C(NCCC(F)(F)F)C1Cc2c(-c3ccccc3Oc3ccccc3)ccnc2O1 (stereo unspecified) | inactive | 
Cc1cc(C)c(OCC(=O)N(Cc2ccc(N(C)C)cc2)C2CCS(=O)(=O)C2)c(C)c1 (stereo unspecified) | inactive | 
COc1ccc(CNC(=O)c2ccc3c(c2)NC(=O)CCS3)cc1 | inconclusive: 0.316 µM [inhibitor, full curve, poor fit] | 
Cc1ccc(OCC(=O)n2nc(C)c(S(=O)(=O)N3CCc4ccccc4C3)c2C)cc1 | inconclusive: 7.94 µM [inhibitor, full curve] | 
O=C(Cc1cccc2ccccc12)N/N=C/c1ccsc1 | inactive | 
Cc1[nH]c(=O)[nH]c(=S)c1C#N | inconclusive: 3.16 µM [inhibitor, full curve] | 
COC(=O)C1=C(C)N(Cc2ccc(C(F)(F)F)cc2)C(=NCc2ccccc2)NC1c1ccccc1 (stereo unspecified) | inconclusive: 63.1 µM [inhibitor, partial curve, poor fit] | 
NC(CSC1(c2ccc(F)cc2)c2ccccc2-c2ccccc21)C(=O)O (stereo unspecified) | inconclusive: 79.4 µM [inhibitor, partial curve, poor fit] | 
CC(=O)NC(c1cccs1)c1cc(Cl)c2ccccc2c1O (stereo unspecified) | inconclusive: 70.8 µM [inhibitor, partial curve, poor fit] | 
C#Cc1cccc(C(=O)NCc2nc(-c3ccccc3NC(C)=O)oc2C)c1 | inconclusive: 100 µM [inhibitor, single point] | 
COCCN1CCCN(C(=O)c2ccoc2)c2ccccc21 | inconclusive: 35.5 µM [inhibitor, partial curve] | 
CC(=O)C1=C(C)OC(=O)C1(NC(=O)c1ccc(C)cc1)C(F)(F)F (stereo unspecified) | inconclusive: 10 µM [inhibitor, partial curve, poor fit] | 
Cc1ccc(C(=O)N/C(=C\c2cn(S(=O)(=O)N(C)C)c3ccccc23)C(=O)N2CCCC2)cc1 | inconclusive: 56.2 µM [inhibitor, partial curve, poor fit] | 
C=CCN(C)C(=O)[C@@H](C)C1CC[C@@]2(C)Cc3sc(NC(=O)CC(C)(C)C)nc3[C@@H](C)[C@@H]2[C@H]1O (stereo partly specified) | inconclusive: 39.8 µM [inhibitor, partial curve, poor fit] | 
CCOC(=O)c1c(CN(C)C)oc2cc(CN(C)C)c(O)c(CSc3ccccc3)c12 | inconclusive: 79.4 µM [inhibitor, partial curve, poor fit] | 
COc1ccc(-n2c(COc3ccc(C)cc3)n[nH]c2=S)cc1 | inconclusive: 50.1 µM [inhibitor, partial curve, poor fit] | 

SMILES | Potency | activity change, negative = inhibition
CCOC(=O)N1CCN(/C=C(\C#N)c2nc3ccccc3s2)CC1 | inactive | 
COc1ccc(-c2noc(CC3CCN(C(=O)C4CCN(C(=O)c5ccccc5)CC4)CC3)n2)cc1 | inactive | 
Cc1nc(C(C)C)cc(N2CCN(c3ccccc3O)CC2)n1 | inconclusive: 63.1 µM [inhibitor, single point] | 
CCn1ccc(C(=O)N2C[C@@H](Oc3cccnc3)C[C@@H]2C(=O)NCCOC)n1 | inactive | 
CSc1cccc(NS(=O)(=O)c2ccc3[nH]cc(C(=O)N4CCCC4)c(=O)c3c2)c1 | inconclusive: 126 µM [inhibitor, partial curve, poor fit] | 
Clc1cccc(Nc2cc3c(cn2)ncn3Cc2ccco2)c1 | inconclusive: 89.1 µM [inhibitor, single point] | 
Cc1ccccc1-c1csc(C(O)(c2ccccc2)C(F)(F)F)n1 (stereo unspecified) | active: 44.7 µM | 
O=C(N/N=C/c1ccc([N+](=O)[O-])cc1)c1ccc(NS(=O)(=O)c2cccs2)cc1 | inactive | 
Cc1oc(-c2ccccc2)cc1C(=O)Nc1ccc2ccccc2c1 | inconclusive: 44.7 µM [inhibitor, single point] | 
CC[n+]1c(/C=C/c2cc([N+](=O)[O-])ccc2O)ccc2ccccc21 | inconclusive: 25.1 µM [inhibitor, partial curve] | 
CC(=O)Nc1cc(-c2ccc(C(=O)N3CCOCC3)cc2)cn2c(-c3cccc(C(C)=O)c3)cnc12 | inactive | 
CCc1ccc(S(=O)(=O)c2nnn3c2nc(NCCNC(C)=O)c2ccccc23)cc1 | inconclusive: 50.1 µM [inhibitor, partial curve, poor fit] | 
COc1ccc(C)cc1NC(=O)C1C2C=CC(C2)C1C(=O)O (stereo unspecified) | inactive | 
Cc1cccc(NC(=O)COC(=O)c2ccc3ccccc3n2)c1 | inconclusive: 100 µM [inhibitor, partial curve, poor fit] | 
Brc1ccc(N=Nc2ccc3ccccc3n2)cc1 | inconclusive: 0.316 µM [inhibitor, full curve, poor fit] | 
Cc1cnc(C(=O)N[C@@H]2CCC[C@@H]2C(=O)NCCC2=CCCCC2)cn1 | inconclusive: 5.01 µM [inhibitor, full curve, poor fit] | 
COc1ccc(S(=O)(=O)N2CCN(Cc3cc(OC)c(OC)cc3OC)CC2)cc1 | inconclusive: 1.58 µM [inhibitor, full curve, poor fit] | 
COc1ccc(C(=O)C=Cc2ccc(OCc3ccccc3)c(OC)c2)cc1OC | inactive | 
OCCN1CCN(C(=S)Nc2cccc(C(F)(F)F)c2)CC1 | inconclusive: 2.82 µM [inhibitor, full curve, poor fit] | 
COCCn1cc(C(=O)c2cc(Br)ccc2O)cc(C#N)c1=O | inconclusive: 50.1 µM [inhibitor, partial curve, poor fit] | 
N#Cc1c(NC(=O)c2ccnn2C(F)F)sc2c1CCCC2 | inconclusive: 17.8 µM [inhibitor, partial curve, poor fit] | 
Cc1ccc(C)c(N2CCN(CC3CCCCC3)CC2)c1 | active: 4.47 µM | 
